From PubChem BioAssay AID2685 (National Center for Advancing Translational Sciences (NCATS), 2010)
Screen size: about 320,000 compounds; about 2,100 (0.66%) were called active. The shares of active, inactive and inconclusive entries below differ from those in the screen. Calls come from the whole dose curve; as a rule, active = well fitted inhibition curve with a large enough effect in the signal ratio, with a control signal flat (not every such curve was filed as active); inconclusive = small, poorly fitted or top-dose-only effect, or effect the other way, or a change in a side signal; inactive = flat fitted curve, though single readings scatter; the % refers to the signal ratio. Where the call is inconclusive, the potency comes from a doubtful curve fit.

Test: qHTS Assay for Lipid Storage Modulators in Drosophila S3 Cells
Details: BODIPY lipid droplet fluorescence, 18-24 h, cells fed with added oleic acid; lipid storage change, negative = inhibition: at 46.1 µM (top of the series) unless noted
How it was run: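 Drosophila S3 cells loaded with oleic acid (400 uM, as added) and compounds at several concentrations; lipid droplets imaged by 488-nm laser-scanning cytometry, 500–530 nm intensity and object ratio to cell channel. Percent activity normalized to 20 uM Triacsin C.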
% is set by controls: 0 for no effect and ±100 for the full control effect; potency is the fitted concentration of half-maximal effect.

| SMILES | lipid storage change, negative = inhibition | Potency |
| --- | --- | --- |
| CCOc1ccc(NC(=O)c2ccc(NC(=O)COC(=O)c3ccc(NC(=O)CC#N)cc3)cc2)cc1 | inconclusive: -9.82% |  |
| Cc1cc(C)cc(OCC(=O)Nc2ccncc2)c1 | inconclusive: -55.6% |  |
| Cc1ccc(CNC(=O)CCCn2c(=O)[nH]c3ccccc3c2=O)cc1 |  | inconclusive: 0.58 µM [falling, partial curve, poor fit] |
| CC1Cc2ccccc2N1C(=O)C(C)n1cc(C(F)(F)F)cc(Cl)c1=O (configuration not stated) | inconclusive: 24.9% |  |
| CC1=NNC(=O)C1CCC(=O)N/N=C(/C)c1ccc([N+](=O)[O-])cc1 (configuration not stated) | inconclusive: -24.5% |  |
| Cn1nc([N+](=O)[O-])nc1Oc1ccccc1F |  | inconclusive: 23.1 µM [rising, partial curve] |
| CCCn1c(C(O)c2ccc(OC)c(OC)c2)nc2ccccc21 (configuration not stated) |  | inconclusive: 14.6 µM [falling, partial curve, poor fit] |
| Cc1csc(NC(=O)CSc2nncc(=O)n2N)n1 | inconclusive: 5.64% |  |
| Cc1cc(C)c(C)c(S(=O)(=O)ON2C(=O)c3ccccc3C2=O)c1C |  | inconclusive: 23.1 µM [cytotoxic, single point] |
| Cc1cc(Cl)cc2sc(NC(=O)C3CC3)nc12 | inconclusive: 20.3% |  |
| COc1cc(/C=C/C(=O)Nc2ccc(N3CCCCC3)c(S(=O)(=O)Nc3ccccc3Cl)c2)cc(OC)c1OC |  | inconclusive: 6.51 µM [falling, single point] |
| Cc1ccc(N2CCN(/N=C/c3ccccc3[N+](=O)[O-])CC2)cc1 |  | inconclusive: 25.9 µM [falling, single point] |
| Cc1ccccc1C(=O)NNc1ccc(-c2csnn2)cc1 | inconclusive: -15.2% |  |
| O=S(=O)(NC1C2CC3CC(C2)CC1C3)c1ccccc1 (configuration not stated) | inconclusive: -13.1% |  |
| CCc1cc2c(NC(C(=O)O)C(C)C)ncnc2s1 (configuration not stated) | inconclusive: -18% |  |
| CC(c1ccco1)N(C(=O)c1ccccc1NS(=O)(=O)c1ccc(Cl)cc1)c1ccccn1 (configuration not stated) | inconclusive: 13% |  |
| CC(C)C(OC(=O)Cn1nnc2ccccc21)C(=O)NC1CCCC1 (configuration not stated) | inconclusive: -174% |  |
| C/C(=N\NC(=O)c1ccco1)c1cc(Cl)sc1Cl | inconclusive: -4.72% |  |
| CC1=C(C(=O)N(C)C)C(c2ccc(N3CCOCC3)cc2)NC(=O)N1 (configuration not stated) | inactive |  |

As a working copy, some entries already given:

| SMILES | lipid storage change, negative = inhibition | Potency |
| --- | --- | --- |
| CC(c1ccco1)N(C(=O)c1ccccc1NS(=O)(=O)c1ccc(Cl)cc1)c1ccccn1 (configuration not stated) | inconclusive: 13% |  |
| CC(C)C(OC(=O)Cn1nnc2ccccc21)C(=O)NC1CCCC1 (configuration not stated) | inconclusive: -174% |  |

The list continues:

| SMILES | lipid storage change, negative = inhibition | Potency |
| --- | --- | --- |
| Cc1cc(C)nc(NC(=O)NC(=O)c2ccccc2)n1 | inconclusive: 34% |  |
| COc1cc2c(cc1OC)C(c1cccc(F)c1)CC(=O)N2 (configuration not stated) |  | inconclusive: 6.51 µM [activator, partial curve, poor fit] |
| CCOc1ccc(-n2c(SCc3ccc(C(=O)OC)o3)nc3c(c2=O)SCC3)cc1 |  | inconclusive: 7.31 µM [activator, partial curve] |
| COC(=O)c1ccc(NC(C)C(=O)OC)c([N+](=O)[O-])c1 (configuration not stated) |  | inconclusive: 29.1 µM [activator, partial curve, poor fit] |
| Cc1ccccc1NC(=O)COC(=O)c1ccccc1SCC(=O)N1CCCC1 |  | inconclusive: 29.1 µM [falling, single point] |
| COc1cc(Cl)c(C)cc1NC(=O)Cc1cccs1 |  | inconclusive: 0.731 µM [falling, full curve] |
| CC(=O)c1ccc(NC(=O)C2C3C=CC(O3)C2C(=O)O)cc1 (configuration not stated) | inconclusive: 13.5% |  |
| CC(C)CNC(=O)c1cnn2c(C(F)(F)F)cc(C(F)(F)F)nc12 | inconclusive: 11.9% |  |
| COc1ccc(NC(=O)CN2C(=O)NC(C)(C3CCCCC3)C2=O)c(OC)c1 (configuration not stated) |  | inconclusive: 2.06 µM [falling, partial curve, poor fit] |
| COC(=O)C1C(=O)c2c([nH]c(C(=O)OC3CCCC3)c2C)CC1C (configuration not stated) | inconclusive: -0.361% |  |
| Cc1ccc(CSCC(=O)N(C)CC(=O)Nc2ccc(C)cc2)cc1 | inactive |  |
| O=C(OCC(=O)c1cccs1)c1ccccc1 | inconclusive: 63% |  |
| COc1ccc(N2C(=O)/C(=C\c3ccco3)N=C2SCC(=O)NC(C)(C)C)cc1Cl |  | inconclusive: 29.1 µM [falling, single point] |
| COc1cccc(CC(NC(C)=O)C(=O)NC2CCN(S(=O)(=O)c3ccc(NC(C)=O)cc3)CC2)c1 (configuration not stated) |  | inconclusive: 0.13 µM [falling, full curve, poor fit] |
| Cc1cc(Cn2nc(-c3ccccc3)cc2C(=O)NCc2cccc(C(F)(F)F)c2)on1 | inconclusive: 46% |  |
| COc1ccccc1NC(=O)C(CC=C(Cl)Cl)C(C)=O (configuration not stated) | inconclusive: -3.17% |  |
| Cc1cc(NC(=O)CSc2nnc(-c3ccco3)n2CC2CCCO2)no1 (configuration not stated) | inconclusive: 27.4% |  |
| CCCCn1c(N)c(N(CC(C)C)C(=O)CSc2n[nH]c(-c3ccc(C)cc3)n2)c(=O)[nH]c1=O | inconclusive |  |
